Measurements reported in PMC12848020.
Results are given in words; binding and its absence hold for the method and conditions named. In cells and extracts the contact can be indirect. Some results given as binding are weak or reduced against the parent protein; the word gives no strength.

Molecular target: T1, Jmjc domain of KDM5B (truncated mutant) (UniProt Q9UGL1)
T1 sequence: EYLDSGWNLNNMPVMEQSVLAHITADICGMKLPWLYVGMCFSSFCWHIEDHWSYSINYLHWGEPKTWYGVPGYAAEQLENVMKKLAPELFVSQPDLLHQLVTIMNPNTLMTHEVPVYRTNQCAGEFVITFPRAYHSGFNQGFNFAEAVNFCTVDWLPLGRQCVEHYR
Assay: co-IP; 293T cells transfected with His-KDM5B and Flag-OTUD7A plasmids (whole and truncated mutants); no method of the co-IP is given

B1: OTU domain of OTUD7A (truncated mutant) (domain or fragment, UniProt Q8TE49 199-374)
chain: LLPLATTGDGNCLLHAASLGMWGFHDRDLVLRKALYTMMRTGAEREALKRRWRWQQTQQNKEEEWEREWTELLKLASSEPRTHFSKNGGTGGGVDNSEDPVYESLEEFHVFVLAHILRRPIVVVADTMLRDSGGEAFAPIPFGGIYLPLEVPPNRCHCSPLVLAYDQAHFSALVSM
**Q.** Which binding does the source give for B1 here?
**A.** Its binding is “binds”.
